Measurements taken from the supplement of paper PMC6411743.
± gives the standard deviation of the averaged measurements. The list shows a part of the results.

The chains behind the UniProt entries cited, without tags or fusion partners. Where a name states a change or a piece, a line headed by the entry shows the natural chain unless it says otherwise.
UniProt P53680: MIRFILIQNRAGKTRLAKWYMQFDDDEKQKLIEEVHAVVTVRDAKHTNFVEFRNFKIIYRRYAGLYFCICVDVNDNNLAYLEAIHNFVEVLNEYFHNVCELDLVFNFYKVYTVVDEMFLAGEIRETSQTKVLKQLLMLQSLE
UniProt O43924: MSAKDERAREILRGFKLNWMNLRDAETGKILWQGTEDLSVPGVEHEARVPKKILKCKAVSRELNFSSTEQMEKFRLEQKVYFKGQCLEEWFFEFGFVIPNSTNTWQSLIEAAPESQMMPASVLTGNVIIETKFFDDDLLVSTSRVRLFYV
UniProt O60493, whole entry: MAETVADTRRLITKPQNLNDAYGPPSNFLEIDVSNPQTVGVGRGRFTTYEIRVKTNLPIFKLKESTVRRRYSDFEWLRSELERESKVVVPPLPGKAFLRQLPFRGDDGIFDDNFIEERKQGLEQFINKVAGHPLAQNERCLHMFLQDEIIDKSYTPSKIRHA
UniProt O15117, whole entry: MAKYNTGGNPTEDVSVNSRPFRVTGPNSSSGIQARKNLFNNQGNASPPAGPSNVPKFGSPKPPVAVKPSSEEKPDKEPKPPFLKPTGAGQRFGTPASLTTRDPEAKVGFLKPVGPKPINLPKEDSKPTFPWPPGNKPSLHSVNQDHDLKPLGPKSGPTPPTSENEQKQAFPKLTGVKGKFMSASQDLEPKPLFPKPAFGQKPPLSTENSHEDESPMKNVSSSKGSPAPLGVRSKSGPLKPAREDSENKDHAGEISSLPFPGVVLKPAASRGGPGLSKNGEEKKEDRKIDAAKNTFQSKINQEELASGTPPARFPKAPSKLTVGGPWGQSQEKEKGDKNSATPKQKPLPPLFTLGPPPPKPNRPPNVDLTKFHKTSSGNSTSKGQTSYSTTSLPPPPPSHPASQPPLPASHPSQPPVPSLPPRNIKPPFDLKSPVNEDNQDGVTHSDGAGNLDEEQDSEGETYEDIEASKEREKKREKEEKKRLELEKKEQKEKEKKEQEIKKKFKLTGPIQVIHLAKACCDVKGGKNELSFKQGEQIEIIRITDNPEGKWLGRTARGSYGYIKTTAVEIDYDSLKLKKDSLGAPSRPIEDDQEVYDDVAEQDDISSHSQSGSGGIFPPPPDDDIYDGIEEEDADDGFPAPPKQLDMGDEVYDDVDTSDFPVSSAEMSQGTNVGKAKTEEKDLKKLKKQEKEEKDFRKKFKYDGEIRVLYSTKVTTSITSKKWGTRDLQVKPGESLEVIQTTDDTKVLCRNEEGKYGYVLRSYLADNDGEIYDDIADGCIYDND
UniProt Q16740, whole entry: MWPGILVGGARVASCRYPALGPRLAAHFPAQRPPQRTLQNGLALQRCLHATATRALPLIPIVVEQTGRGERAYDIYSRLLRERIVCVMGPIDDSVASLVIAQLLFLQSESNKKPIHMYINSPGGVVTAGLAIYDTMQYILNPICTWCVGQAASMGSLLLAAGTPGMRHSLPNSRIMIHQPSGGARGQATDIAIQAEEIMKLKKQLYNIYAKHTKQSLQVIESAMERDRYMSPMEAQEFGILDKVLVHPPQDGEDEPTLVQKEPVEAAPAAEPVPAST
UniProt O00463: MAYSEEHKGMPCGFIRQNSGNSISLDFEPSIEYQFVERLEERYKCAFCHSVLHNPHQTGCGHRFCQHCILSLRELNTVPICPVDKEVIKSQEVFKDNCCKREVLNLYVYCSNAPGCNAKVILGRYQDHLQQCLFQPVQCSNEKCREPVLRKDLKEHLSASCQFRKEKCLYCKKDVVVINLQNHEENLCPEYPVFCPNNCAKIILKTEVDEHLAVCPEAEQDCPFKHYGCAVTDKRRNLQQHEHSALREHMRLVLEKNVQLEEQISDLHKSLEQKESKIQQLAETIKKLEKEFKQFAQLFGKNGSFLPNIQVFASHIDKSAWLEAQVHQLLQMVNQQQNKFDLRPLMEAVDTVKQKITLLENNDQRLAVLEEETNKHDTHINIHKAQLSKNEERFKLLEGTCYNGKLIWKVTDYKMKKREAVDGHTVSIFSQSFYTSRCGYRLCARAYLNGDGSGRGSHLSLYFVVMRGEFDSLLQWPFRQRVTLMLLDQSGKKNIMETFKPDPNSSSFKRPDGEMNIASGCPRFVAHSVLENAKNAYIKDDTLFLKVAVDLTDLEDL
UniProt O15126: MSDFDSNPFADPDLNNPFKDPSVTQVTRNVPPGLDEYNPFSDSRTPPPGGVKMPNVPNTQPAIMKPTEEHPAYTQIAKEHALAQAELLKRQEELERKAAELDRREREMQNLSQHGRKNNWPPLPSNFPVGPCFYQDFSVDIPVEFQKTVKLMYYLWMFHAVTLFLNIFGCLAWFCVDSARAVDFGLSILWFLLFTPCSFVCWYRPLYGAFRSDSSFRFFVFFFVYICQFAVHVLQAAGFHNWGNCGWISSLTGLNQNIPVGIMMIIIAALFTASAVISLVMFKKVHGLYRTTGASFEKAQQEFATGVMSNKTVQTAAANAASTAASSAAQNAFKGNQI
UniProt Q8IX01: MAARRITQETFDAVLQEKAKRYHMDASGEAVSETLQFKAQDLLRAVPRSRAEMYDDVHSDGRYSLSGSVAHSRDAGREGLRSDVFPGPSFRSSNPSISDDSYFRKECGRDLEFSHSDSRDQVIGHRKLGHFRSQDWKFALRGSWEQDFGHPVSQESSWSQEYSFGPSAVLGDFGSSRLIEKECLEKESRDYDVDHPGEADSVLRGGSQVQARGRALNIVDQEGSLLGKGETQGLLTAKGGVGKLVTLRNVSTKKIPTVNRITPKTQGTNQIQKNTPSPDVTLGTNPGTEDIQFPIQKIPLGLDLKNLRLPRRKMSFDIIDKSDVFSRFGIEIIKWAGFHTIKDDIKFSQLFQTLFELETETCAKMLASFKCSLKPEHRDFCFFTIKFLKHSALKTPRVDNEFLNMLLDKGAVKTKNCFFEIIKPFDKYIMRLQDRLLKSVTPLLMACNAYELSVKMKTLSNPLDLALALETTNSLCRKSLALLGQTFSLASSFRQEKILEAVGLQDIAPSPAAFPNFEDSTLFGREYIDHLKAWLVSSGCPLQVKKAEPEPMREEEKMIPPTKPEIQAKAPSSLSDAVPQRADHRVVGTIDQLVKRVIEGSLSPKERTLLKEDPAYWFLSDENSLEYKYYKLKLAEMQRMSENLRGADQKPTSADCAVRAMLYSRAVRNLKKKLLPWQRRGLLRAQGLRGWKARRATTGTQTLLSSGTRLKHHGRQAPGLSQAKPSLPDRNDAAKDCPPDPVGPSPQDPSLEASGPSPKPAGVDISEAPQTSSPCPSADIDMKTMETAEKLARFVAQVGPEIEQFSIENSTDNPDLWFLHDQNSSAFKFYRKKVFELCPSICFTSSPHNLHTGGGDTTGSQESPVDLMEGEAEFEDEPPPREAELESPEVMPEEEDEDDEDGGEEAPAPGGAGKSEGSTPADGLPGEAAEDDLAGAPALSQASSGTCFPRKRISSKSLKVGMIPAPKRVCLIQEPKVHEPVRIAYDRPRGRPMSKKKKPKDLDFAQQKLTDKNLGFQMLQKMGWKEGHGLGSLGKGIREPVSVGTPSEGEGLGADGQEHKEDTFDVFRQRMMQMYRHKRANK
UniProt Q92888: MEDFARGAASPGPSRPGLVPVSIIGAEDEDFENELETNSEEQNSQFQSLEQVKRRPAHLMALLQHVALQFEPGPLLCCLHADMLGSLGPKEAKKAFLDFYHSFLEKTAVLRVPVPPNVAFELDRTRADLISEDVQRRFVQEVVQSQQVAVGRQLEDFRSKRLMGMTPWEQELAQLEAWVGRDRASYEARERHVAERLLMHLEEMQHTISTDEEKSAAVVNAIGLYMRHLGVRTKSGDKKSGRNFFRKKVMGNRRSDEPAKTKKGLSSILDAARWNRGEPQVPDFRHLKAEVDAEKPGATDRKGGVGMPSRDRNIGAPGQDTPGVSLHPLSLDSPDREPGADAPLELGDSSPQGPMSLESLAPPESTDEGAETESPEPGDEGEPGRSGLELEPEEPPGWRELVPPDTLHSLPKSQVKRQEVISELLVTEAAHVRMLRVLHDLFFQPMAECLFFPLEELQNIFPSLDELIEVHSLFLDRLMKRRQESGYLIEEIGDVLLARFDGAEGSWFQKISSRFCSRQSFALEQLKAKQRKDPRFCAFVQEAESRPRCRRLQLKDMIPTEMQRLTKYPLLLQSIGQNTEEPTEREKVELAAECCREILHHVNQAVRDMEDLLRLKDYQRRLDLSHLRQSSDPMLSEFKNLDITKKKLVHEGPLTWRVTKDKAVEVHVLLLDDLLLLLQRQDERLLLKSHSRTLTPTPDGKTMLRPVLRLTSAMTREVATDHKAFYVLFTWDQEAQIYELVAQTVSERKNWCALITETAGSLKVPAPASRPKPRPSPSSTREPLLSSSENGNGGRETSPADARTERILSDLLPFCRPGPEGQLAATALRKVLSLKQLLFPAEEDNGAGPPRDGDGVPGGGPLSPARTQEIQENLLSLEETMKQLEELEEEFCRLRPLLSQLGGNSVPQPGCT
UniProt O43760: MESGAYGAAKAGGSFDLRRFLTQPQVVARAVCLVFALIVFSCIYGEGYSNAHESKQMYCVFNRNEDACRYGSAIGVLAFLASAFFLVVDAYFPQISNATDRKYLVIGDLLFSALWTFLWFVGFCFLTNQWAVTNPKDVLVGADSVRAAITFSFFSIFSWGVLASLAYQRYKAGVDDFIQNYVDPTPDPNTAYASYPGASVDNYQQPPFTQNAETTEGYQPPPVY
UniProt O14647: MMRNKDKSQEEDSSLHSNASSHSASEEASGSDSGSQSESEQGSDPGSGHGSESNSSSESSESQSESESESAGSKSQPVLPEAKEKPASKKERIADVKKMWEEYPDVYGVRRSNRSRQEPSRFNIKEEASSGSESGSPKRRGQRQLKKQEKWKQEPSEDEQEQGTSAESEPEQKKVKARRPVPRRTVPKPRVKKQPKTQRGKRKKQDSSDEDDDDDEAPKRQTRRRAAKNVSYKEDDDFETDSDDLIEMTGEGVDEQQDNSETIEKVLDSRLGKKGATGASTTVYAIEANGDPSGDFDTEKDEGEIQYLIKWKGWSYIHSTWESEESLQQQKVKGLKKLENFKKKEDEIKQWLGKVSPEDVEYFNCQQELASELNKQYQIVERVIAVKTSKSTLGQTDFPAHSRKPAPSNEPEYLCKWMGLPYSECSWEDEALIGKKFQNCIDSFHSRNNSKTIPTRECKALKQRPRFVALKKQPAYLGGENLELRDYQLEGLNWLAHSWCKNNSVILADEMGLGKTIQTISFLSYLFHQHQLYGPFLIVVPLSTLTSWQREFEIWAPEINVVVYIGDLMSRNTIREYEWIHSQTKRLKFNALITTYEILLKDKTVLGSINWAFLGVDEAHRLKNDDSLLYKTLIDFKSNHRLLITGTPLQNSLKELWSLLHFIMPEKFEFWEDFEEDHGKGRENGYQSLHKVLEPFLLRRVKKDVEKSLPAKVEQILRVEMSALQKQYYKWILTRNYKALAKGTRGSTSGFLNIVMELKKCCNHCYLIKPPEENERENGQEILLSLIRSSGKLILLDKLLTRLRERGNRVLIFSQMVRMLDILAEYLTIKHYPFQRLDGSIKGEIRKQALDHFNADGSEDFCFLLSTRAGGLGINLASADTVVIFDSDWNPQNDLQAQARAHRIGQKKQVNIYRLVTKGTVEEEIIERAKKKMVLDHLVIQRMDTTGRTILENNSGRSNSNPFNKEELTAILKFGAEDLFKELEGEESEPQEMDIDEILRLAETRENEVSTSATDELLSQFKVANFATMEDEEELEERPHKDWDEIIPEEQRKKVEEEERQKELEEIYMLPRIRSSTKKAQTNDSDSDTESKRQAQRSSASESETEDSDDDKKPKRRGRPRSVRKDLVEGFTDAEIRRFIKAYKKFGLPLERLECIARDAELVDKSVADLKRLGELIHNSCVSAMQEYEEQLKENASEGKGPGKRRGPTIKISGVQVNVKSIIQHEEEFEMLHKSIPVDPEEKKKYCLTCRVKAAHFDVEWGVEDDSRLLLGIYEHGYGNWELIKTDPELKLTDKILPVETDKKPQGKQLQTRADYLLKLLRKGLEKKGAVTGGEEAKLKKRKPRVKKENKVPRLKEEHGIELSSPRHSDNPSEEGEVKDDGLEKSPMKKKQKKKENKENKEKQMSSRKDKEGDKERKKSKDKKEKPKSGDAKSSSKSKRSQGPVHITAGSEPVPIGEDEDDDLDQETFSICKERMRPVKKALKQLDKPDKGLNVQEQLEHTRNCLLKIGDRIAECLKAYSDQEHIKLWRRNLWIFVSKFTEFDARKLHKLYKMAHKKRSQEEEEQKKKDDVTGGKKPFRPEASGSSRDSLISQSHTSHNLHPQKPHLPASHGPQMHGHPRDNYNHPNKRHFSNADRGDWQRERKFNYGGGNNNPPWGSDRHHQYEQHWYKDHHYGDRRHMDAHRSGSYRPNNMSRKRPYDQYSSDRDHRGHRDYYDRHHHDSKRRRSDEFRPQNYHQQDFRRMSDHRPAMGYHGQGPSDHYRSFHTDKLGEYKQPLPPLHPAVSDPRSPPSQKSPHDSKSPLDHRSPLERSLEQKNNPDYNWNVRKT

Compound: Nc1nc2c(ncn2[C@@H]2O[C@H](COP(=O)(O)OP(=O)(O)OP(=O)(O)O)[C@@H](O)[C@H]2O)c(=O)[nH]1 [guanosine triphosphate]
Experiment: NP40-soluble protein abundance relative to vehicle (solubility fold change) (ratio); higher = more soluble protein in presence of GTP
Procedure, shortened: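 Jurkat crude lysate (Dounce-homogenised) was treated with eight concentrations from 0.1 to 10 mM for 10 min at room temperature, then 3 min at 37 °C. It was solubilised with 0.8% NP40 and benzonase (60 min, 4 °C) and ultracentrifuged, and the supernatant was TMT-labelled for LC-MS/MS. Intensities were vsn-normalised, and the value is the fold change against the NP40-processed vehicle per replicate, from three independent experiments.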

Target	NP40-soluble protein abundance (concentration: 0.1mM)	NP40-soluble protein abundance (concentration: 0.5mM)	NP40-soluble protein abundance (concentration: 1mM)	NP40-soluble protein abundance (concentration: 2mM)	NP40-soluble protein abundance (concentration: 4mM)	NP40-soluble protein abundance (concentration: 6mM)	NP40-soluble protein abundance (concentration: 8mM)	NP40-soluble protein abundance (concentration: 10mM)
M0QYZ2 and related entries (UniProt P53680)	1.07 ± 0.11	1.14 ± 0.13	1.06 ± 0.15	1.12 ± 0.18	1.12 ± 0.13	1.08 ± 0.091	1.04 ± 0.081	1.07 ± 0.12
L0R819 and related entries (UniProt Q9NWL6)	1.06 ± 0.055	1.1 ± 0.022	1.09 ± 0.052	1.04 ± 0.18	1.16 ± 0.16	1.07 ± 0.082	1.261 ± 0.0045	1.2 ± 0.043
PDE6D (UniProt O43924)	1.08 ± 0.056	1.15 ± 0.019	1.04 ± 0.14	1.03 ± 0.03	1.03 ± 0.091	0.985 ± 0.15	0.8972 ± 0.0058	0.9622 ± 0.0046
SNX3 (UniProt O60493)	0.89 ± 0.038	0.86 ± 0.022	0.98 ± 0.027	0.976 ± 0.054	0.925 ± 0.054	0.943 ± 0.083	0.859 ± 0.12	0.946 ± 0.081
UniProt O15117-2|O15117-3|O15117	0.931 ± 0.05	0.951 ± 0.063	0.941 ± 0.077	0.898 ± 0.11	0.858 ± 0.11	0.896 ± 0.11	0.91 ± 0.056	0.912 ± 0.083
SH3BP5 (UniProt O60239)	0.948 ± 0.086	1.02 ± 0.05	0.93 ± 0.043	0.951 ± 0.035	0.938 ± 0.064	1.02 ± 0.049	0.927 ± 0.057	0.985 ± 0.049
UniProt O60504-2|O60504	1 ± 0.034	0.965 ± 0.037	0.931 ± 0.013	0.914 ± 0.022	0.921 ± 0.065	0.923 ± 0.079	0.905 ± 0.069	0.91 ± 0.08
M0QYV5 and related entries (UniProt Q16740)	0.983 ± 0.033	0.953 ± 0.064	1.06 ± 0.06	1.02 ± 0.091	1.04 ± 0.075	0.992 ± 0.067	1.03 ± 0.041	1.03 ± 0.031
TRAF5 (UniProt O00463)	0.998 ± 0.02	1.1 ± 0.019	0.982 ± 0.023	0.998 ± 0.041	0.978 ± 0.037	0.98 ± 0.064	0.951 ± 0.066	0.989 ± 0.04
SCAMP1 (UniProt O15126)	0.983 ± 0.11	0.937 ± 0.1	0.981 ± 0.079	0.947 ± 0.13	0.954 ± 0.15	0.919 ± 0.11	0.977 ± 0.083	0.973 ± 0.1
M0R2Z9 and related entries (UniProt Q8IX01)	1.01 ± 0.021	1.05 ± 0.03	1.12 ± 0.073	1.16 ± 0.074	1.21 ± 0.13	1.18 ± 0.098	1.25 ± 0.12	1.25 ± 0.13
M0QZR4 (UniProt Q92888)	0.985 ± 0.044	0.989 ± 0.041	0.97 ± 0.059	0.957 ± 0.056	0.967 ± 0.035	0.951 ± 0.039	0.967 ± 0.043	0.945 ± 0.03
BRD4 (UniProt O60885)	0.955 ± 0.075	0.972 ± 0.072	1.01 ± 0.093	0.962 ± 0.11	0.967 ± 0.093	0.98 ± 0.091	1.02 ± 0.061	1.02 ± 0.089
UniProt O43760 and related entries	0.957 ± 0.086	0.909 ± 0.12	0.911 ± 0.076	0.915 ± 0.083	0.908 ± 0.088	0.852 ± 0.11	0.843 ± 0.15	0.884 ± 0.091
UniProt O14647 and related entries	1.09 ± 0.07	1.05 ± 0.066	1.25 ± 0.088	1.23 ± 0.054	1.34 ± 0.1	1.47 ± 0.092	1.56 ± 0.22	1.68 ± 0.23
